# Assay results: PMC12624041
# Sequences of proteins named here, by UniProt entry; tags and fusion partners are left off.
# UniProt Q9H361: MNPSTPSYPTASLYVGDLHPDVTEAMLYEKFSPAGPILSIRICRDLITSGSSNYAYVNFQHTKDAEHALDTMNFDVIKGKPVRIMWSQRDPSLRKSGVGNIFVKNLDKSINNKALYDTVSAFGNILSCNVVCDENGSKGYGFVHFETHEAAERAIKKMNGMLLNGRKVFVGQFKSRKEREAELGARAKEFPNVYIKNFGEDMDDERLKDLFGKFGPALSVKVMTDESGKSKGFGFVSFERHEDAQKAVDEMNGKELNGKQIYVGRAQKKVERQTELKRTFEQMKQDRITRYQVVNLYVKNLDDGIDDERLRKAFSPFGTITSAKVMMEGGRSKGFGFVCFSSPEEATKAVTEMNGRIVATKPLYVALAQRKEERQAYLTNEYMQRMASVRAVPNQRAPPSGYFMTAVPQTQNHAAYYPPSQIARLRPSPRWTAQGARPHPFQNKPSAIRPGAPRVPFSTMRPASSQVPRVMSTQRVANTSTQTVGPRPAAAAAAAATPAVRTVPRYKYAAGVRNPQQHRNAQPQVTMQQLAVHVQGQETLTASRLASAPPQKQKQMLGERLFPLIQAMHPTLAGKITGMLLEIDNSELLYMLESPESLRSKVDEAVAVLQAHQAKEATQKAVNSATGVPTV
# UniProt O95832: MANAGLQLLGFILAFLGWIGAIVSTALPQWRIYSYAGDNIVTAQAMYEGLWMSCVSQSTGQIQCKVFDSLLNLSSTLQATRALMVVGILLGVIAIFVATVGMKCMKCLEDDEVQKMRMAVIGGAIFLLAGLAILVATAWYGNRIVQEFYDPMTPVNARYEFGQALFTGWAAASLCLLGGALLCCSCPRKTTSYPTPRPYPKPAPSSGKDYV
# Results are given in words; binding and its absence hold for the method and conditions named. In cells and extracts the contact can be indirect.
# Molecular target: PABPC3 (UniProt Q9H361)
# Assay: co-IP; cells transfected with the indicated plasmids, harvested 48 h post-transfection, lysed by sonication in HPPO buffer; anti-FlagM2 antibody 1 h at 4 °C, then protein G PLUS-Agarose beads overnight at 4 °C; western blot
substance,measurement,value
CLDN1 (from UniProt O95832 1-211),binding,no binding
